From US8268999B2, “Tri-cyclic pyrazolopyridine kinase inhibitors” (Vertex Pharmaceuticals Incorporated, priority 2009, dated 2012)
Some of these results come from one statement about several compounds together.

Protein sequences, listed by entry. Tags and fused reporters are not part of them.
UniProt P48736, whole entry, species assumed: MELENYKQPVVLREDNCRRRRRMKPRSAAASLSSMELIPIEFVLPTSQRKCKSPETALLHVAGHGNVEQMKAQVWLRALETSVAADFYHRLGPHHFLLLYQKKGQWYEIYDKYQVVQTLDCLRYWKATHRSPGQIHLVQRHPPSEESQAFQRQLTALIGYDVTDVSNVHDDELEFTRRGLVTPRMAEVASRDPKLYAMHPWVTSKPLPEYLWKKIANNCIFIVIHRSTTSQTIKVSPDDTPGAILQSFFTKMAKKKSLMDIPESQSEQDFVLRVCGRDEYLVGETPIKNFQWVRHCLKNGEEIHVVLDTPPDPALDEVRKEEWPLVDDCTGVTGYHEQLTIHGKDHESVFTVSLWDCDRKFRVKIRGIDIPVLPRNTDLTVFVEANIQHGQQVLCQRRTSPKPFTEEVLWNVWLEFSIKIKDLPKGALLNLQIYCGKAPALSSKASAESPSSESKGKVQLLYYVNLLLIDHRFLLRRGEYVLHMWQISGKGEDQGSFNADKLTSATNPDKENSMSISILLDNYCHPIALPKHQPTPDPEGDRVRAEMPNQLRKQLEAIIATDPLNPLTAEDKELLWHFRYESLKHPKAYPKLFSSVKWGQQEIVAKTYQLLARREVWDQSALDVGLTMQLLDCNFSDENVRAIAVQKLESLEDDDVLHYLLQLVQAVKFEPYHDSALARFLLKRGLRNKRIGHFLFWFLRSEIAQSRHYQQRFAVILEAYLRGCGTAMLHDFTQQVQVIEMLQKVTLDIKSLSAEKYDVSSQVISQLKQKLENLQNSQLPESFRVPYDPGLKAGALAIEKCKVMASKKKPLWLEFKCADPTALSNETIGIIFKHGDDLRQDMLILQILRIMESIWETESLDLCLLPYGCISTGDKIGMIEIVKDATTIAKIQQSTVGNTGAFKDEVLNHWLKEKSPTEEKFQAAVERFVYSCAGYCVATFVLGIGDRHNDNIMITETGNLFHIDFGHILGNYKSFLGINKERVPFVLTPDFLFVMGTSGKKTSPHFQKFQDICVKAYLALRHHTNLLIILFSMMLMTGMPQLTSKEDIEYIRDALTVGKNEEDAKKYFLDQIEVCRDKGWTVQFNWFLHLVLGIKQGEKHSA

Molecular target: PI3Kγ (Homo sapiens, UniProt P48736)
Experiment: PI3K Inhibition Assay (33P-ATP, PI(4,5)P2 substrate), PI3Kγ
Format: biochemical
Settings: 2 nM final enzyme, 3 μM ATP, 30 μM PI(4,5)P2, 30 min at 25° C.; competitive tight binding Ki fit
Procedure: Using a Biomek FX from Beckman Coulter, 1.5 μL of each of ten 2.5-fold serial dilutions of a compound of the invention in 100% DMSO was added to an individual well (hereafter, “test well”) in a 96 well polystyrene plate [Corning, Costar Item No. 3697]. One test well also contained 1.5 μL of DMSO with no compound. […] Using a Titertek Multidrop, 50 μL of Reaction Mix [100 mM HEPES pH 7.5, 50 mM NaCl, 10 mM DTT, 0.2 mg/mL BSA, 60 μM phosphatidylinositol(4,5)-bisphosphate diC16 (PI(4,5)P2; Avanti Polar Lipids, Cat. No. 840046P) and PI3K isoform of interest (see Table 3 for isoform concentrations)] was added to each well. To initiate the reaction, 50 μL of ATP Mix [20 mM MgCl2, 6 μM ATP (100 μCi/μmole ^33P-ATP)] was added each well, followed by incubating the wells for 30 min. at 25° C. Final concentrations in each well were 50 mM HEPES 7.5, 10 mM MgCl2, 25 mM NaCl, 5 mM DTT, 0.1 mg/mL BSA, 30 μM PI(4,5)P2, 3 μM ATP, and the PI3K isoform of interest (see Table 3). Final compound concentrations in each well ranged from 10 μM to 1 nM.
After incubation, the reactions in each well were quenched by addition of 50 μL of stop solution [30% TCA/Water, 10 mM ATP]. Each quenched reaction mixture was then transferred to a 96 well glass fiber filter plate [Corning, Costar Item No. 3511]. The plate was vacuum-filtered and washed three times with 150 μL of 5% TCA/water in a modified Bio-Tek Instruments ELX-405 Auto Plate Washer. 50 μL of scintillation fluid was added to each well and the plate read on a Perkin-Elmer TopCount™ NXT liquid scintillation counter to obtain ^33P-counts representing inhibition values.
The value for the background well was subtracted from the value obtained for each test well and the data were fit to the competitive tight binding Ki equation described by Morrison and Stone, Comments Mol. Cell. Biophys. 2: 347-368, 1985.

| SMILES | Ki [nM] |
| --- | --- |
| COc1cncc(-c2ccc3nc(Nc4cnccn4)sc3c2)c1 [Compound 1, 6-(5-methoxypyridin-3-yl)-N-(pyrazin-2-yl)benzo[d]thiazol-2-amine] | < 1500 |
| COc1cncc(-c2ccc3nc(Nc4cncc(C)n4)sc3c2)c1 [Compound 2] | < 1500 |
| COc1cncc(-c2ccc3nc(Nc4nc(C)cs4)sc3c2)c1 [Compound 3] | < 1500 |
| COc1cncc(-c2ccc3nc(Nc4nccs4)sc3c2)c1 [Compound 4, 6-(5-methoxypyridin-3-yl)-N-(thiazol-2-yl)benzo[d]thiazol-2-amine] | < 1500 |
| COc1cncc(-c2ccc3nc(Nc4cccnc4)sc3n2)c1 [Compound 5] | < 1500 |
| COc1cncc(-c2ccc3nc(Nc4cccnc4)sc3c2)c1 [Compound 6, 6-(5-methoxypyridin-3-yl)-N-(pyridin-3-yl)benzo[d]thiazol-2-amine] | < 1500 |
| COc1cncc(-c2ccc3nc(Nc4nnc(C5CC5)s4)sc3c2)c1 [Compound 7] | < 1500 |
| COc1cncc(-c2ccc3nc(Nc4nncs4)sc3c2)c1 [Compound 8] | < 1500 |
| COc1cncc(-c2ccc3nc(Nc4ccccn4)sc3c2)c1 [Compound 9] | < 1500 |
| COc1cc(-c2ccc3nc(Nc4cnccn4)sc3c2)cnc1OC [Compound 10] | < 1500 |
| CCOc1cc(-c2ccc3nc(Nc4cnccn4)sc3c2)cnc1OC [Compound 11] | < 1500 |
| CCOc1ncc(-c2ccc3nc(Nc4cnccn4)sc3c2)cc1OC [Compound 12] | < 1500 |
| CCOc1cc(-c2ccc3nc(Nc4cnccn4)sc3c2)cnc1OCC [Compound 13] | < 1500 |
| COc1cncc(-c2ccc3nc(Nc4cc[nH]n4)sc3c2)c1 [Compound 14] | < 1500 |
| COc1cncc(-c2ccc3nc(Nc4ccn(C)n4)sc3c2)c1 [Compound 15] | < 1500 |
| COc1ncc(-c2ccc3nc(Nc4cnccn4)sc3c2)cc1OC(C)C [Compound 16] | < 1500 |
| COc1cc(-c2ccc3nc(Nc4cnccn4)sc3c2)cnc1N [Compound 17] | < 1500 |
| COc1cncc(-c2ccc3nc(Nc4cccc(C)n4)sc3c2)c1 [Compound 18] | < 1500 |
| COc1cc(-c2ccc3nc(Nc4cccc(C)n4)sc3c2)cnc1OC [Compound 19] | < 1500 |

| SMILES | Ki [nM] |
| --- | --- |
| COc1cc(-c2ccc3nc(Nc4cc[nH]n4)sc3c2)cnc1OC [Compound 20] | < 1500 |
| COc1cc(-c2ccc3nc(Nc4ccn(C)n4)sc3c2)cnc1OC [Compound 21] | < 1500 |
| CCOc1cncc(Nc2nc3ccc(-c4cnc(OC)c(OC)c4)cc3s2)n1 [Compound 22] | < 1500 |
| CCCn1ccc(Nc2nc3ccc(-c4cnc(OC)c(OC)c4)cc3s2)n1 [Compound 23] | < 1500 |
| COc1cc(-c2ccc3nc(Nc4ccccn4)sc3c2)cnc1OC [Compound 24] | < 1500 |
| COc1cc(-c2ccc3nc(Nc4ccncn4)sc3c2)cnc1OC [Compound 25] | < 1500 |
| COc1cncc(Nc2nc3ccc(-c4cnc(OC)c(OC)c4)cc3s2)n1 [Compound 26] | < 1500 |
| CCOc1cc(-c2ccc3nc(Nc4cnccn4)sc3n2)cnc1OCC [Compound 27] | < 1500 |
| COc1cc(-c2ccc3nc(Nc4cnccn4)sc3c2)cnc1C [Compound 28] | < 1500 |
| COc1cc(-c2ccc3nc(Nc4cccnc4)sc3c2)cnc1OC [Compound 29] | < 1500 |
| COc1cc(-c2ccc3nc(Nc4ncc(C)s4)sc3c2)cnc1OC [Compound 30] | < 1500 |
| COc1cc(-c2ccc3nc(Nc4nnc(C)s4)sc3c2)cnc1OC [Compound 31] | < 1500 |
| CCc1ncc(-c2ccc3nc(Nc4cnccn4)sc3c2)cc1OC [Compound 32] | < 1500 |
| COc1cc(-c2ccc3nc(Nc4nccc(C)n4)sc3c2)cnc1OC [Compound 33] | < 1500 |
| COc1cc(-c2ccc3nc(Nc4cncc(C)n4)sc3c2)cnc1OC [Compound 34] | < 1500 |
| COc1cccc(Nc2nc3ccc(-c4cnc(OC)c(OC)c4)cc3s2)n1 [Compound 35] | < 1500 |
| COc1cc(-c2ccc3nc(Nc4ncccn4)sc3c2)cnc1OC [Compound 36] | < 1500 |
| COc1cc(-c2ccc3nc(Nc4cnccn4)sc3n2)cnc1OC [Compound 37] | < 1500 |
